The record followed here is paper PMC12586603.

By UniProt entry, the sequences of proteins in these tests, tags left out.
UniProt Q8N163: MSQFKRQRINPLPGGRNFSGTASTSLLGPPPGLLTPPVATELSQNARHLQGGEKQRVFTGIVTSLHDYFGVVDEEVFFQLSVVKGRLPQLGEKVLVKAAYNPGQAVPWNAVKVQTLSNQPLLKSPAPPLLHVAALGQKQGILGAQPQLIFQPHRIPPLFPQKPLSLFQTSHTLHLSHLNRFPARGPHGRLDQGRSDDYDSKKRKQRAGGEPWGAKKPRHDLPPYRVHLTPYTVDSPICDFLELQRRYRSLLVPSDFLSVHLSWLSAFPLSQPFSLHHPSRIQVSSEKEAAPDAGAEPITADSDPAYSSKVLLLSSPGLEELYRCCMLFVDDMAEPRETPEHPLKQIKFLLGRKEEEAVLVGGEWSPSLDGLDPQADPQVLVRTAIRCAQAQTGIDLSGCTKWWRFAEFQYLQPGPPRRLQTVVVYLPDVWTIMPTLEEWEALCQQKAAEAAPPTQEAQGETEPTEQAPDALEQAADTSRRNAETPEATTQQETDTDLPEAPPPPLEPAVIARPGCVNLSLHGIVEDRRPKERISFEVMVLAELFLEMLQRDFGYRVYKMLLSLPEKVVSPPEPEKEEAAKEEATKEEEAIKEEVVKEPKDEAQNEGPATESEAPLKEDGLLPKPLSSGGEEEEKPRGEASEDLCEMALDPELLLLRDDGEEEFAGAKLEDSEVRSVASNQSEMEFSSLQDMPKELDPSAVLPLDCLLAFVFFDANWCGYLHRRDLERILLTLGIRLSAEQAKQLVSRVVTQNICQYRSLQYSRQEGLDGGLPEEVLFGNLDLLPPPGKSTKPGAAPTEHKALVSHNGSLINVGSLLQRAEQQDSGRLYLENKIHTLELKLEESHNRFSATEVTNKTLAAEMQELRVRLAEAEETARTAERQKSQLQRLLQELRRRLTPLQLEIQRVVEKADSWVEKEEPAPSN
UniProt Q00613: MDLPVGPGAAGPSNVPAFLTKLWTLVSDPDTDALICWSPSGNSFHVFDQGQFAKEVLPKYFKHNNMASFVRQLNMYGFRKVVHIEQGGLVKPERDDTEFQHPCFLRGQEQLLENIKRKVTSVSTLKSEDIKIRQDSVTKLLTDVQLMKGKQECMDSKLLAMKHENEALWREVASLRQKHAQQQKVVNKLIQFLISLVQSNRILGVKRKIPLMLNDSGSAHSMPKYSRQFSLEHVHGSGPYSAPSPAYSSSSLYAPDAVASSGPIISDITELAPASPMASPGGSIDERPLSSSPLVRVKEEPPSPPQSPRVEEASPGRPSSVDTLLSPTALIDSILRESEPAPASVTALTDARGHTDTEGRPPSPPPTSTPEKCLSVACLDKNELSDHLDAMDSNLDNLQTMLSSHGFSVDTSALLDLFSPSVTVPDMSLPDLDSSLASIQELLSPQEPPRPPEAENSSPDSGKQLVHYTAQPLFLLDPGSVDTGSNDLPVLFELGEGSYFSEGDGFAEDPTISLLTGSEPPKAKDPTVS
UniProt Q9UNE7: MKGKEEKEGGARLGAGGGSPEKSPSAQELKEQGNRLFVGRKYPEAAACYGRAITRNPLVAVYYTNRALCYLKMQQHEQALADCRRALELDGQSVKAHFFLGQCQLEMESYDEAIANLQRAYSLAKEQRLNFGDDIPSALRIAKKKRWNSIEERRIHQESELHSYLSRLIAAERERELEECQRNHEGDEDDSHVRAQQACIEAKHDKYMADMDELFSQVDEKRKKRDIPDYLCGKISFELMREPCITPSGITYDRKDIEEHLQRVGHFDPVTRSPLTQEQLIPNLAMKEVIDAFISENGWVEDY

Results are given in words; binding and its absence hold for the method and conditions named. For some of these results: In cells and extracts the contact can be indirect. Some entries that bind do so weakly or less than the wild type.

Test [1] concerns the target GST-DBC1 (UniProt Q8N163). Put plainly: pull-down; GST-DBC1 as bait; FLAG-HSF1 purified from 293T cells (with or without HS), untreated or treated with λ-phosphatase; immunoblot; both purified. Background: In western blotting, separated proteins are transferred to a membrane and probed.
Test [2] addresses Heat shock factor 1 (HSF1), endogenous (human (endogenous in 22RV1 and SM1)) (UniProt Q00613). Kind of test: co-IP; SM1 cells transfected with expression vectors (CHIP, with or without DBC1); lysates immunoprecipitated with anti-HSF1 antibodies, immunoblot.
Test [3] has as its target 3xFLAG-HSF1 (UniProt Q00613). Put plainly: co-IP; 293T cells transfected with expression constructs; lysates immunoprecipitated with FLAG-M2 agarose beads (FLAG-HSF1 immunoprecipitates), immunoblot; with or without coexpressed DYRK2 or DBC1.

Consider 3xFLAG-HSF1 (from UniProt Q00613 1-529), for which the binding entry in test [1] is on record as “binds”.

Regarding “CHIP-V5 (from UniProt Q9UNE7 1-303) (enzyme)”, in test [2], the binding result was “binds”.

As to “FLAG-HSF1 treated with λ-phosphatase (from UniProt Q00613 1-529)”, in test [1], the binding entry is listed as “binds weakly”.

As for “HSP90β E42A (client-trapping mutant of HSP90β) (from UniProt P08238 1-724)”, the binding entry in test [3] is recorded as “binds”.
